From the M2OR odorant receptor database
The list shows a part of the results. Calls are pooled over several reports, among them a noisy single-well screen.

Legend:
Conditions in all cases: stereoisomer not certain
[1] = system: T1, O52R1
T1 sequence (whole entry): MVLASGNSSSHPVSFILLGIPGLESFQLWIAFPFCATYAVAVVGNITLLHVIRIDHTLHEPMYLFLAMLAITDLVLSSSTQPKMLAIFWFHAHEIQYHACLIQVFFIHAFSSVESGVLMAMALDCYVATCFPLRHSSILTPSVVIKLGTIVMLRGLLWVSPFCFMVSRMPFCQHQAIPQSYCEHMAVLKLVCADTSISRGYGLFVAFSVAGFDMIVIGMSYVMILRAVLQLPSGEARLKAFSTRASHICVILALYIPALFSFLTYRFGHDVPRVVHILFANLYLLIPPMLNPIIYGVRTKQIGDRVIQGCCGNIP
In short: (§1)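 Each receptor–molecule pair is labelled responsive or non-responsive (inactive) according to whether the original authors judged the measured signal statistically different from baseline. The data were taken from the main text and supplementary material of published papers and checked for typos and inconsistencies. Assay methods differed by source, with transient luciferase assays in mammalian cell lines being common.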

[2] = system: T2, O52W1
T2 sequence (whole entry): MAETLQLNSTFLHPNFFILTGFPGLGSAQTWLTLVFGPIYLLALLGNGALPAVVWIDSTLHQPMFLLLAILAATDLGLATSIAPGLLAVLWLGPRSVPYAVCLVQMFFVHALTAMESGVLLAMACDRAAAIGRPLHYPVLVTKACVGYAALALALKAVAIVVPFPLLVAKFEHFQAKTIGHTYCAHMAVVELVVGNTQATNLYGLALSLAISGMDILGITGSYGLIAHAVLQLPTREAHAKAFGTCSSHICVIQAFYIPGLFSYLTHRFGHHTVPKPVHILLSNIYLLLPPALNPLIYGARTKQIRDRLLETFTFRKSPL
In short: as §1

[3] = system: T3, O56A3
T3 sequence (whole entry): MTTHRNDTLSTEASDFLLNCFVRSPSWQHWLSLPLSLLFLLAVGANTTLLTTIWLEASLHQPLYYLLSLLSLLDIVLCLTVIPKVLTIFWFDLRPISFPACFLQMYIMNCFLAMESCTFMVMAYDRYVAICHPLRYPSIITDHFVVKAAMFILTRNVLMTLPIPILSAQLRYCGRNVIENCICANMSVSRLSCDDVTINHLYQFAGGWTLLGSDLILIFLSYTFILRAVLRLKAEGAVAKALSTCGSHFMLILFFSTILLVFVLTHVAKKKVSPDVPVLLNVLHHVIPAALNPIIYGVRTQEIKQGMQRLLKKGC
In short: as §1

[4] = system: T4, O56B1
T4 sequence (whole entry): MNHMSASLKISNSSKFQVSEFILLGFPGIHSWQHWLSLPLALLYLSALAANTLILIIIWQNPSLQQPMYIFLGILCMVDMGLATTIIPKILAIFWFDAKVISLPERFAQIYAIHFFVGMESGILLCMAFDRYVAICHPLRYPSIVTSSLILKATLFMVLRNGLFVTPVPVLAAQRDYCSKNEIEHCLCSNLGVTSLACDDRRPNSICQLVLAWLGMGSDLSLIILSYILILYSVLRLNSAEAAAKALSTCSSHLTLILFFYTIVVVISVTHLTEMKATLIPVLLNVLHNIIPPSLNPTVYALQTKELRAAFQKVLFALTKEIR
In short: as §1

[5] = system: T5, O56B4
T5 sequence (whole entry): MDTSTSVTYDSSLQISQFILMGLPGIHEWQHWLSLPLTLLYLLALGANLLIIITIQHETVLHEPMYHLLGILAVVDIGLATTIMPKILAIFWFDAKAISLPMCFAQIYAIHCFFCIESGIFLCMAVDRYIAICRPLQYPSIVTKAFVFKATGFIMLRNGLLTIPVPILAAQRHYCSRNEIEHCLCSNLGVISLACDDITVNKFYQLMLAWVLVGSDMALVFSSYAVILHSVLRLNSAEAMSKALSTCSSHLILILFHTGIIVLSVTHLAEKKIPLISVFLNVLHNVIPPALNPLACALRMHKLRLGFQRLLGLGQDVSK
In short: as §1

[6] = system: T6, O5AC2
T6 sequence (whole entry): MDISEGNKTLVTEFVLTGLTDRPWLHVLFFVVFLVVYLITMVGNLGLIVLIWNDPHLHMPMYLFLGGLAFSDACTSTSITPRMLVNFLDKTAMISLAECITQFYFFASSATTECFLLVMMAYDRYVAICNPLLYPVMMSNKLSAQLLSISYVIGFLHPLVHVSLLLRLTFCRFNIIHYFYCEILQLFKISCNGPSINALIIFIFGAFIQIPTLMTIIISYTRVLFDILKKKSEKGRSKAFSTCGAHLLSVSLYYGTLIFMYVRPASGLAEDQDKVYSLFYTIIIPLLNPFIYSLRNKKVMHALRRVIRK
In short: as §1

[7] = system: T7, O5AK2
T7 sequence (whole entry): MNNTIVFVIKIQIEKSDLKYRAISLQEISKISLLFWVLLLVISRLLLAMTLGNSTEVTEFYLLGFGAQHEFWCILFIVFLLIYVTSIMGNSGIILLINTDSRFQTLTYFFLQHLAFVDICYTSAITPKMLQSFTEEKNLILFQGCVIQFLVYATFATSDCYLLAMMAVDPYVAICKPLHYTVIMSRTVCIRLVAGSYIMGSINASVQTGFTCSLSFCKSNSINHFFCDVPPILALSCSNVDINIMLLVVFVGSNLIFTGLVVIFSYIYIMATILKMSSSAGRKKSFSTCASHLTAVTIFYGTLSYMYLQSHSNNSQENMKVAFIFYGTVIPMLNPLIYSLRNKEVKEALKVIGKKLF
In short: as §1

[8] = system: T8, O5AK3
T8 sequence (whole entry): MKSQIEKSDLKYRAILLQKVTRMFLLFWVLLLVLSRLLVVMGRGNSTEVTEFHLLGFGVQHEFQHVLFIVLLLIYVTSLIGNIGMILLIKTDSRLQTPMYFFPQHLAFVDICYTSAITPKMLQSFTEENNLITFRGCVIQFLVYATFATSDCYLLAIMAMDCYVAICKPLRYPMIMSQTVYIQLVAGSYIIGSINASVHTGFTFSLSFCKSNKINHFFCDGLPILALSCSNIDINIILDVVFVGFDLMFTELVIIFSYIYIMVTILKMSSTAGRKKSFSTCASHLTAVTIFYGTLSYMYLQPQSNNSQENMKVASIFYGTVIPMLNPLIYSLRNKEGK
In short: as §1

[9] = system: T9, O5AL1
T9 sequence (whole entry): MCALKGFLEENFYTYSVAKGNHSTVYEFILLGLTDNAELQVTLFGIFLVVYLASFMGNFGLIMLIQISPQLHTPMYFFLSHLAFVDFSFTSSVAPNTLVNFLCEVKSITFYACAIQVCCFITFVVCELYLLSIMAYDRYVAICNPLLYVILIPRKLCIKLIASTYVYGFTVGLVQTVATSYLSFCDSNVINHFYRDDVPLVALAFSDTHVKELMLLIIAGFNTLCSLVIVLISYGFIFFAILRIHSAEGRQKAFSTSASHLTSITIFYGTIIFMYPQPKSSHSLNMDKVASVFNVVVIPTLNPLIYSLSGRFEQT
In short: as §1

[10] = system: T10, O5AP2
T10 sequence (whole entry): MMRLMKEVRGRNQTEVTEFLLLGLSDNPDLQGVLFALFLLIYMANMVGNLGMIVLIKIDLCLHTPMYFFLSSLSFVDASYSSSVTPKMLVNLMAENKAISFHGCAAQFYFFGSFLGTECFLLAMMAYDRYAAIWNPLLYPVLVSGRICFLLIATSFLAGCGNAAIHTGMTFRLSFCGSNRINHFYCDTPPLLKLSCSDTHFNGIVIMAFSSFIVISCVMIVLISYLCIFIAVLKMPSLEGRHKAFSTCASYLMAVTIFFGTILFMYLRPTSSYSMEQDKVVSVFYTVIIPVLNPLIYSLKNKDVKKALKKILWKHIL
In short: as §1

Measured: odorant receptor agonist call;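 also: active if original authors judged signal statistically different from baseline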

CCCCOC(C)=O
inactive: all assays above

CS
inactive: all assays above

CCC(C)=O
inactive: all assays above
